# The list shows a part of the results.
# B1: DC-Sign-R (Homo sapiens), Q9H2X3 (protein)
# chain: MSDSKEPRVQQLGLLEEDPTTSGIRLFPRDFQFQQIHGHKSSTGCLGHGALVLQLLSFMLLAGVLVAILVQVSKVPSSLSQEQSEQDAIYQNLTQLKAAVGELSEKSKLQEIYQELTQLKAAVGELPEKSKLQEIYQELTRLKAAVGELPEKSKLQEIYQELTRLKAAVGELPEKSKLQEIYQELTRLKAAVGELPEKSKLQEIYQELTELKAAVGELPEKSKLQEIYQELTQLKAAVGELPDQSKQQQIYQELTDLKTAFERLCRHCPKDWTFFQGNCYFMSNSQRNWHDSVTACQEVRAQLVVIKTAEEQNFLQLQTSRSNRFSWMGLSDLNQEGTWQWVDGSPLSPSFQRYWNSGEPNNSGNEDCAEFSGSGWNDNRCDVDNYWICKKPAACFRDE
# Assays:
# Assay in all cases: glycan array binding signal (z-score within array); higher = stronger binding
# Conditions in all cases: glycan notation: IUPAC condensed, linker removed
# [1] = biological target: Neu5Ac(a2-6)GlcNAc(b1-4)GlcNAc
# How it was run: (§1)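 Glycan array binding is given as a within-array Z-score, which can be read as non-binding when negative. The arrays, 3228 of them, came from the Consortium for Functional Glycomics database and were retained only where the protein sequence was available. Z-scores were averaged across arrays of the same protein sequence at different concentrations or buffers and across linkers.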
# [2] = biological target: Neu5Ac(a2-6)GlcNAc(b1-4)GlcNAc(b1-4)GlcNAc
# How it was run: as §1
# [3] = biological target: Neu5Ac(a2-8)Neu5Ac
# How it was run: as §1
# [4] = biological target: Neu5Ac(a2-8)Neu5Ac(a2-3)Gal(b1-3)GalNAc(b1-4)[Neu5Ac(a2-3)]Gal(b1-4)Glc
# How it was run: as §1
# [5] = biological target: Neu5Ac(a2-8)Neu5Ac(a2-3)Gal(b1-3)GalNAc(b1-4)[Neu5Ac(a2-8)Neu5Ac(a2-3)]Gal(b1-4)Glc
# How it was run: as §1
# [6] = biological target: Neu5Ac(a2-8)Neu5Ac(a2-3)Gal(b1-4)Glc
# How it was run: as §1
# [7] = biological target: Neu5Ac(a2-8)Neu5Ac(a2-3)Gal(b1-4)GlcNAc
# How it was run: as §1
# [8] = biological target: Neu5Ac(a2-8)Neu5Ac(a2-3)[Gal(b1-3)GalNAc(b1-4)]Gal(b1-4)Glc
# How it was run: as §1
# [9] = biological target: Neu5Ac(a2-8)Neu5Ac(a2-3)[GalNAc(b1-4)]Gal(b1-4)Glc
# How it was run: as §1
# [10] = biological target: Neu5Ac(a2-8)Neu5Ac(a2-8)Neu5Ac
# How it was run: as §1
# [11] = biological target: Neu5Ac(a2-8)Neu5Ac(a2-8)Neu5Ac(a2-3)Gal(b1-4)Glc
# How it was run: as §1
# [12] = biological target: Neu5Ac(a2-8)Neu5Ac(a2-8)Neu5Ac(a2-3)[Gal(b1-3)GalNAc(b1-4)]Gal(b1-4)Glc
# How it was run: as §1
# [13] = biological target: Neu5Ac(a2-8)Neu5Ac(a2-8)Neu5Ac(a2-3)[GalNAc(b1-4)]Gal(b1-4)Glc
# How it was run: as §1
# [14] = biological target: Neu5Ac(a2-8)Neu5Ac(a2-8)Neu5Ac(a2-8)Neu5Ac(a2-3)[GalNAc(b1-4)]Gal(b1-4)Glc
# How it was run: as §1
# [15] = biological target: Neu5Ac(a2-8)Neu5Gc(a2-3)Gal(b1-4)GlcNAc
# How it was run: as §1
# [16] = biological target: Neu5Ac(b2-6)Gal(b1-4)GlcNAc
# How it was run: as §1
# [17] = biological target: Neu5Ac(b2-6)GalNAc
# How it was run: as §1
# [18] = biological target: Neu5Ac9Ac(a2-3)Gal(b1-3)GlcNAc
# How it was run: as §1
# [19] = biological target: Neu5Ac9Ac(a2-3)Gal(b1-4)GlcNAc
# How it was run: as §1
# [20] = biological target: Neu5Ac9Ac(a2-6)Gal(b1-4)GlcNAc
# How it was run: as §1
# [21] = biological target: Neu5Gc(a2-3)Gal(b1-3)GlcNAc
# How it was run: as §1
# [22] = biological target: Neu5Gc(a2-3)Gal(b1-3)[Fuc(a1-4)]GlcNAc
# How it was run: as §1
# [23] = biological target: Neu5Gc(a2-3)Gal(b1-4)Glc
# How it was run: as §1
# [24] = biological target: Neu5Gc(a2-3)Gal(b1-4)GlcNAc
# How it was run: as §1
# [25] = biological target: Neu5Gc(a2-3)Gal(b1-4)GlcNAc(b1-3)Gal(b1-4)GlcNAc(b1-2)Man(a1-3)[Neu5Gc(a2-3)Gal(b1-4)GlcNAc(b1-3)Gal(b1-4)GlcNAc(b1-2)Man(a1-6)]Man(b1-4)GlcNAc(b1-4)GlcNAc
# How it was run: as §1
# [26] = biological target: Neu5Gc(a2-3)Gal(b1-4)[Fuc(a1-3)]GlcNAc
# How it was run: as §1
# [27] = biological target: Neu5Gc(a2-6)Gal(b1-4)GlcNAc
# How it was run: as §1
# [28] = biological target: Neu5Gc(a2-6)GalNAc
# How it was run: as §1
# [29] = biological target: Neu5Gc(a2-8)Neu5Ac(a2-3)Gal(b1-4)GlcNAc
# How it was run: as §1
# [30] = biological target: Neu5Gc(a2-8)Neu5Gc(a2-3)Gal(b1-4)GlcNAc
# How it was run: as §1
# [31] = biological target: Neu5Gc(a2-8)Neu5Gc(a2-3)Gal(b1-4)GlcNAc(b1-3)Gal(b1-4)GlcNAc
# How it was run: as §1
# [32] = biological target: Neu5Gc(a2-8)Neu5Gc(a2-6)Gal(b1-4)GlcNAc
# How it was run: as §1
# [33] = biological target: Neu5Gc(b2-6)Gal(b1-4)GlcNAc
# How it was run: as §1
binder,measurement,setting,value
B1,glycan array binding signal (z-score),[1],-0.047
same,glycan array binding signal (z-score),[2],0.07
same,glycan array binding signal (z-score),[3],-0.005
same,glycan array binding signal (z-score),[4],-0.694
same,glycan array binding signal (z-score),[5],-0.632
same,glycan array binding signal (z-score),[6],0.272
same,glycan array binding signal (z-score),[7],2.4
same,glycan array binding signal (z-score),[8],-0.55
same,glycan array binding signal (z-score),[9],-0.833
same,glycan array binding signal (z-score),[10],-0.606
same,glycan array binding signal (z-score),[11],-0.345
same,glycan array binding signal (z-score),[12],0.348
same,glycan array binding signal (z-score),[13],-0.616
same,glycan array binding signal (z-score),[14],-0.195
same,glycan array binding signal (z-score),[15],0.86
same,glycan array binding signal (z-score),[16],3.63
same,glycan array binding signal (z-score),[17],-0.692
same,glycan array binding signal (z-score),[18],-0.665
same,glycan array binding signal (z-score),[19],-0.451
same,glycan array binding signal (z-score),[20],-0.534
same,glycan array binding signal (z-score),[21],0.568
same,glycan array binding signal (z-score),[22],0.025
same,glycan array binding signal (z-score),[23],-0.38
same,glycan array binding signal (z-score),[24],0.184
same,glycan array binding signal (z-score),[25],-0.412
same,glycan array binding signal (z-score),[26],-0.228
same,glycan array binding signal (z-score),[27],0.445
same,glycan array binding signal (z-score),[28],-0.121
same,glycan array binding signal (z-score),[29],2.33
same,glycan array binding signal (z-score),[30],1.68
same,glycan array binding signal (z-score),[31],1.55
same,glycan array binding signal (z-score),[32],0.329
same,glycan array binding signal (z-score),[33],-0.152

# Part of the list above in another layout.
binder	measurement	setting	value
B1	glycan array binding signal (z-score)	[21]	0.568
same	glycan array binding signal (z-score)	[22]	0.025

# From the supplement of paper PMC8728848
